Results as given in article PMC6341703.
No constants are given. Whether binding was seen depends on the method and setting. Binding seen in cells or lysates may run through a third protein. Some binding calls cover weakened binding; strength is not graded here. For some assays here: Sequences can lack the tags named with a protein.

Sequences of proteins named here, by UniProt entry; tags and fusion partners are left off.
UniProt Q8TEW0: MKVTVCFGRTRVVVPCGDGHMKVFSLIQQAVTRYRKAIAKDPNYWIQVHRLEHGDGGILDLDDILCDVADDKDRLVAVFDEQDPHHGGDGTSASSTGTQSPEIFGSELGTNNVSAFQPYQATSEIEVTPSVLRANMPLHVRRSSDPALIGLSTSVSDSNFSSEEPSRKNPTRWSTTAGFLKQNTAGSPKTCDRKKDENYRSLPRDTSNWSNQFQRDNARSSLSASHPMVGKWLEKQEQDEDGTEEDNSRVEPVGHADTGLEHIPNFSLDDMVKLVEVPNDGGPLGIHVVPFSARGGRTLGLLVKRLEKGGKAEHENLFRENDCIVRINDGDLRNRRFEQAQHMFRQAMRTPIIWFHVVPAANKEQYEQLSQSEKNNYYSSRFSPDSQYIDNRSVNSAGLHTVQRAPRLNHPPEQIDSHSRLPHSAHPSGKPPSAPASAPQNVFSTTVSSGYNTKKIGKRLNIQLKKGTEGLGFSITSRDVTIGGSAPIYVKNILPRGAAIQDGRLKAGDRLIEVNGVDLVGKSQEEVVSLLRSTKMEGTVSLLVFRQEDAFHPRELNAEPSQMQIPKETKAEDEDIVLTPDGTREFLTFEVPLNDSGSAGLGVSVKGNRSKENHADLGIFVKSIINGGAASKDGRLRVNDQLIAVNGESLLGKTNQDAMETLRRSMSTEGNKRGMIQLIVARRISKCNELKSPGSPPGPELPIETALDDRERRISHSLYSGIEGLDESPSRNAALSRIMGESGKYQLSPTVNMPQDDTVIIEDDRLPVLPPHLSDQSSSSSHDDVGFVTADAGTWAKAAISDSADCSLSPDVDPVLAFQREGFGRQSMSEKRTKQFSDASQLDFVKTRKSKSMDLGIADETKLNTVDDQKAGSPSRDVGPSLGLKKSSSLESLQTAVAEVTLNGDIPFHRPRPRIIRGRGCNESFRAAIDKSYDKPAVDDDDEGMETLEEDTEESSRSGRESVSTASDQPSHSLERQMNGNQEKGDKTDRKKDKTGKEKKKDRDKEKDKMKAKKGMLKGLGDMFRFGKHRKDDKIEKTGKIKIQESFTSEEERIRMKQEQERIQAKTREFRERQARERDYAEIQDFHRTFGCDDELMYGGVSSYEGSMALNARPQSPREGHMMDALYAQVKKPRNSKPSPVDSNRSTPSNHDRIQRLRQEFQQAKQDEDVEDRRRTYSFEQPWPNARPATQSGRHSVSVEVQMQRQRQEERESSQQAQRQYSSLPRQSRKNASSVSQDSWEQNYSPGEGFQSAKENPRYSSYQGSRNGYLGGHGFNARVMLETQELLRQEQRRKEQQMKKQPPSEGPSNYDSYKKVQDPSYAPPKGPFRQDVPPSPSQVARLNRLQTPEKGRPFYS
UniProt Q7KZI7: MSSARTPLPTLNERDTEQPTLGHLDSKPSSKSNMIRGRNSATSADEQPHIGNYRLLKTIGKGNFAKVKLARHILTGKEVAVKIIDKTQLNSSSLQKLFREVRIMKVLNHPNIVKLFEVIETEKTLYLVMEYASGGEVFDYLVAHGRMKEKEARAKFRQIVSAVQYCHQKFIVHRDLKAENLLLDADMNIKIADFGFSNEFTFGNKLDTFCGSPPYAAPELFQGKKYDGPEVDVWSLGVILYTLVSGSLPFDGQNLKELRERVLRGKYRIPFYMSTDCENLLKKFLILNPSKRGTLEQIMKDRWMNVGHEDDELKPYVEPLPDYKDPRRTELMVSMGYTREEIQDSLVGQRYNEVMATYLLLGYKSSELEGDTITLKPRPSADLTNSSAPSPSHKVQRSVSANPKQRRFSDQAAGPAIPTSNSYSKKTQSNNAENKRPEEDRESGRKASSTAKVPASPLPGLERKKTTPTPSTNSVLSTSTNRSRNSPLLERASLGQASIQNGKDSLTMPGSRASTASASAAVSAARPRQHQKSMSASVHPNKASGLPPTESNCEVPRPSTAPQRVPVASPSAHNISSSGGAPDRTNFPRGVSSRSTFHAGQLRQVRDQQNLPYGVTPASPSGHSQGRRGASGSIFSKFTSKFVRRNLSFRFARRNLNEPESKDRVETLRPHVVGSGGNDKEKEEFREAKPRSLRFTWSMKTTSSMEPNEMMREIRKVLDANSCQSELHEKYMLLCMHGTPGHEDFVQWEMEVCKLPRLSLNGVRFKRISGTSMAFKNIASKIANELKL

Assays:
[1] = target: T1, Grb2-associated binding protein 1 (Gab1), endogenous (human (endogenous in MDA-MB-231 and SK-BR3)) (UniProt Q13480); test: co-IP; endogenous proteins; whole cell lysates of MDA-MB-231 and SK-BR3 (also after stable Gab1 knockdown, shRNA#2); lysis buffer 50 mM Tris pH 7.5, 120 mM NaCl, 0.5% NP-40, 5 mM EDTA; 500 ug protein with 5 ug antibody at 4 C overnight, protein G-sepharose; blot
T1 sequence: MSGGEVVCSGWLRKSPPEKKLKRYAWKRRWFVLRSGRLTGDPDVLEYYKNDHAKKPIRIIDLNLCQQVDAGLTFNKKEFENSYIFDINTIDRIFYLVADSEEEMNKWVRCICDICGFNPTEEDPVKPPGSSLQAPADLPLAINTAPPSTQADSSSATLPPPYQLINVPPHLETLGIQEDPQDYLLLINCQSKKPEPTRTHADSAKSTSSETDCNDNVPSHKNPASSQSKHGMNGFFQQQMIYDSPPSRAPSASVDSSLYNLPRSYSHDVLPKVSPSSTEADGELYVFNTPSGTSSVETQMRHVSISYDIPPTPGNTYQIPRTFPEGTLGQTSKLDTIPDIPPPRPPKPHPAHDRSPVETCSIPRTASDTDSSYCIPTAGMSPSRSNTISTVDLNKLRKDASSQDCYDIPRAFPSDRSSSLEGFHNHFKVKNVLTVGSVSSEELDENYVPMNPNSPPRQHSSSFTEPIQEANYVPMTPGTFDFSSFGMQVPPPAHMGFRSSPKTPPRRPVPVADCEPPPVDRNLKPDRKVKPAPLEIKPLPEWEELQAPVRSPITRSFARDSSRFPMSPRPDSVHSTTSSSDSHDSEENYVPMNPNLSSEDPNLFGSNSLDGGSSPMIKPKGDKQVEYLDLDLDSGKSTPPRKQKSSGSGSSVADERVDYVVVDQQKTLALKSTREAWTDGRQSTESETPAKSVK

[2] = target: T2, Gab1WT, fully functional Gab1 expressed from a lentiviral vector (synonymous mutation of Gab1 for antagonist of Gab1 shRNAs) (human (from the printed RefSeq NM_207123.2)) (UniProt Q13480); test: co-IP; whole cell lysates of 231-shGab1 (Gab1 knockdown) subclones re-expressing Gab1WT, Gab1MT1, Gab1MT2 or vector; lysis buffer 50 mM Tris pH 7.5, 120 mM NaCl, 0.5% NP-40, 5 mM EDTA; protein G-sepharose; blot
T2 sequence: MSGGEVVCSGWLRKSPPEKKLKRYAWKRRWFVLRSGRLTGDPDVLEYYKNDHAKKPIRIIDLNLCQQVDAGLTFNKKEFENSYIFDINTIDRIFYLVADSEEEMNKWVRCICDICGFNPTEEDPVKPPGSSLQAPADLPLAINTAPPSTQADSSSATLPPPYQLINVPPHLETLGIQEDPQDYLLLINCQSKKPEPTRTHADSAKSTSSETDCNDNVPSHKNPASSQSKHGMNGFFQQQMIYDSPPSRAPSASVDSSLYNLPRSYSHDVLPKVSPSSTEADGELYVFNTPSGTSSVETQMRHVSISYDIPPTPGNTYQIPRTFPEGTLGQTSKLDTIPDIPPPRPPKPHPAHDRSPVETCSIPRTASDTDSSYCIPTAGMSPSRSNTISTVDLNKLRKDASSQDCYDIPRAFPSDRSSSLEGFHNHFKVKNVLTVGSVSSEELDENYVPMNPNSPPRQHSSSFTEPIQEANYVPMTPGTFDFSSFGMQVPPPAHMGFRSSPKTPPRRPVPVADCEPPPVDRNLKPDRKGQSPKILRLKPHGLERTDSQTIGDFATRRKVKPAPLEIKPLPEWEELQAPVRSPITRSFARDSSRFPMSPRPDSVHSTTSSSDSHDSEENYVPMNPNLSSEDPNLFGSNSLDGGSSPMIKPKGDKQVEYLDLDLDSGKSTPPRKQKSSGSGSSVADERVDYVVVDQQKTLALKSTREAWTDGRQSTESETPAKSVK

[3] = target: T3, Gab1MT1, Par1b binding domain (152-250aa) deletion mutant of Gab1 (human (from the printed RefSeq NM_207123.2)) (UniProt Q13480); test: as above
T3 sequence: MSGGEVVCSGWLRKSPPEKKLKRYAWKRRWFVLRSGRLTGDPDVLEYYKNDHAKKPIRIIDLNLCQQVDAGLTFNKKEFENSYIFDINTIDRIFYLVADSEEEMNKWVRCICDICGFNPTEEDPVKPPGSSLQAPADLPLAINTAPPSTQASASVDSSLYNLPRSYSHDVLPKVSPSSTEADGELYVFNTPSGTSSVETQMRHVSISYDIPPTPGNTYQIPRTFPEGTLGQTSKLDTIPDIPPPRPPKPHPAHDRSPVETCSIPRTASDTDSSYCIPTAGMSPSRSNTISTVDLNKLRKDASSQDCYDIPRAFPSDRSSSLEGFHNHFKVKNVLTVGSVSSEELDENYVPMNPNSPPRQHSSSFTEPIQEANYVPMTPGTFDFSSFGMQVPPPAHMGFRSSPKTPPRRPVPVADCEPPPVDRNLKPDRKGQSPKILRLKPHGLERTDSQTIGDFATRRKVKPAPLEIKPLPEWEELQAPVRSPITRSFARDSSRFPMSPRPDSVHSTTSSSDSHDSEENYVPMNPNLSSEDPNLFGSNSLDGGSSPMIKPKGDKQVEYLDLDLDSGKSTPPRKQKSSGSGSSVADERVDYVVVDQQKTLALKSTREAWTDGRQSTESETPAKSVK

[4] = target: T2, Gab1WT, fully functional Gab1 expressed from a lentiviral vector (synonymous mutation of Gab1 for antagonist of Gab1 shRNAs) (human (from the printed RefSeq NM_207123.2)); test: co-IP; whole cell lysates of MDA-MB-231 and SK-BR3 subclones stably overexpressing Gab1 (231-Gab1OE, SK-Gab1OE) against vector controls; lysis buffer 50 mM Tris pH 7.5, 120 mM NaCl, 0.5% NP-40, 5 mM EDTA; protein G-sepharose; blot
[5] = target: Par3, endogenous (human (endogenous in MDA-MB-231 and SK-BR3)) (UniProt Q8TEW0); test: co-IP; whole cell lysates of 231-shGab1 (Gab1 knockdown) subclones re-expressing Gab1WT, Gab1MT1, Gab1MT2 or vector; lysis buffer 50 mM Tris pH 7.5, 120 mM NaCl, 0.5% NP-40, 5 mM EDTA; protein G-sepharose; blot
[6] = target: Par3, endogenous (human (endogenous in MDA-MB-231 and SK-BR3)) (UniProt Q8TEW0); test: co-IP; endogenous proteins; whole cell lysates of MDA-MB-231 and SK-BR3 (also after stable Gab1 knockdown, shRNA#2); lysis buffer 50 mM Tris pH 7.5, 120 mM NaCl, 0.5% NP-40, 5 mM EDTA; 500 ug protein with 5 ug antibody at 4 C overnight, protein G-sepharose; blot
[7] = target: Par3, endogenous (human (endogenous in MDA-MB-231 and SK-BR3)) (UniProt Q8TEW0); test: co-IP; whole cell lysates of MDA-MB-231 and SK-BR3 subclones stably overexpressing Gab1 (231-Gab1OE, SK-Gab1OE) against vector controls; lysis buffer 50 mM Tris pH 7.5, 120 mM NaCl, 0.5% NP-40, 5 mM EDTA; protein G-sepharose; blot

“Par1b, endogenous (from UniProt Q7KZI7 1-788)” was tested, and the binding [1] was “binds”, the binding [2] was “binds” and the binding [3] was “binds weakly”. The binding [4] was “binds”.

B1: Gab1MT2, Par3 binding domain (301-400aa) deletion mutant of Gab1 (protein, UniProt Q13480-2)
chain: MSGGEVVCSGWLRKSPPEKKLKRYAWKRRWFVLRSGRLTGDPDVLEYYKNDHAKKPIRIIDLNLCQQVDAGLTFNKKEFENSYIFDINTIDRIFYLVADSEEEMNKWVRCICDICGFNPTEEDPVKPPGSSLQAPADLPLAINTAPPSTQADSSSATLPPPYQLINVPPHLETLGIQEDPQDYLLLINCQSKKPEPTRTHADSAKSTSSETDCNDNVPSHKNPASSQSKHGMNGFFQQQMIYDSPPSRAPSASVDSSLYNLPRSYSHDVLPKVSPSSTEADGELYVFNTPSGTSSVETQMSSQDCYDIPRAFPSDRSSSLEGFHNHFKVKNVLTVGSVSSEELDENYVPMNPNSPPRQHSSSFTEPIQEANYVPMTPGTFDFSSFGMQVPPPAHMGFRSSPKTPPRRPVPVADCEPPPVDRNLKPDRKGQSPKILRLKPHGLERTDSQTIGDFATRRKVKPAPLEIKPLPEWEELQAPVRSPITRSFARDSSRFPMSPRPDSVHSTTSSSDSHDSEENYVPMNPNLSSEDPNLFGSNSLDGGSSPMIKPKGDKQVEYLDLDLDSGKSTPPRKQKSSGSGSSVADERVDYVVVDQQKTLALKSTREAWTDGRQSTESETPAKSVK
With B1 the binding [5] was “binds weakly”.

B2: Grb2-associated binding protein 1 (Gab1), endogenous (protein, UniProt Q13480 1-694)
chain: MSGGEVVCSGWLRKSPPEKKLKRYAWKRRWFVLRSGRLTGDPDVLEYYKNDHAKKPIRIIDLNLCQQVDAGLTFNKKEFENSYIFDINTIDRIFYLVADSEEEMNKWVRCICDICGFNPTEEDPVKPPGSSLQAPADLPLAINTAPPSTQADSSSATLPPPYQLINVPPHLETLGIQEDPQDYLLLINCQSKKPEPTRTHADSAKSTSSETDCNDNVPSHKNPASSQSKHGMNGFFQQQMIYDSPPSRAPSASVDSSLYNLPRSYSHDVLPKVSPSSTEADGELYVFNTPSGTSSVETQMRHVSISYDIPPTPGNTYQIPRTFPEGTLGQTSKLDTIPDIPPPRPPKPHPAHDRSPVETCSIPRTASDTDSSYCIPTAGMSPSRSNTISTVDLNKLRKDASSQDCYDIPRAFPSDRSSSLEGFHNHFKVKNVLTVGSVSSEELDENYVPMNPNSPPRQHSSSFTEPIQEANYVPMTPGTFDFSSFGMQVPPPAHMGFRSSPKTPPRRPVPVADCEPPPVDRNLKPDRKVKPAPLEIKPLPEWEELQAPVRSPITRSFARDSSRFPMSPRPDSVHSTTSSSDSHDSEENYVPMNPNLSSEDPNLFGSNSLDGGSSPMIKPKGDKQVEYLDLDLDSGKSTPPRKQKSSGSGSSVADERVDYVVVDQQKTLALKSTREAWTDGRQSTESETPAKSVK
B2 was tested, and the binding [6] was “binds”.

B3: Gab1WT, fully functional Gab1 expressed from a lentiviral vector (synonymous mutation of Gab1 for antagonist of Gab1 shRNAs) (protein, UniProt Q13480-2 1-724)
chain: MSGGEVVCSGWLRKSPPEKKLKRYAWKRRWFVLRSGRLTGDPDVLEYYKNDHAKKPIRIIDLNLCQQVDAGLTFNKKEFENSYIFDINTIDRIFYLVADSEEEMNKWVRCICDICGFNPTEEDPVKPPGSSLQAPADLPLAINTAPPSTQADSSSATLPPPYQLINVPPHLETLGIQEDPQDYLLLINCQSKKPEPTRTHADSAKSTSSETDCNDNVPSHKNPASSQSKHGMNGFFQQQMIYDSPPSRAPSASVDSSLYNLPRSYSHDVLPKVSPSSTEADGELYVFNTPSGTSSVETQMRHVSISYDIPPTPGNTYQIPRTFPEGTLGQTSKLDTIPDIPPPRPPKPHPAHDRSPVETCSIPRTASDTDSSYCIPTAGMSPSRSNTISTVDLNKLRKDASSQDCYDIPRAFPSDRSSSLEGFHNHFKVKNVLTVGSVSSEELDENYVPMNPNSPPRQHSSSFTEPIQEANYVPMTPGTFDFSSFGMQVPPPAHMGFRSSPKTPPRRPVPVADCEPPPVDRNLKPDRKGQSPKILRLKPHGLERTDSQTIGDFATRRKVKPAPLEIKPLPEWEELQAPVRSPITRSFARDSSRFPMSPRPDSVHSTTSSSDSHDSEENYVPMNPNLSSEDPNLFGSNSLDGGSSPMIKPKGDKQVEYLDLDLDSGKSTPPRKQKSSGSGSSVADERVDYVVVDQQKTLALKSTREAWTDGRQSTESETPAKSVK
With B3 the binding [5] was “binds” and the binding [7] was “binds”.
